Measurements taken from PubChem BioAssay AID540276 (National Center for Advancing Translational Sciences (NCATS), 2011).
The whole screen tested about 300,000 compounds, of which about 5,400 (1.8%) were called active. The inconclusive results got no clear call from the source; some entries with a clear call stand among them for comparison. The call rests on the fitted dose curve; tested in HEK293 cells. Potencies beside an inconclusive call are fits to weak or partial responses and may not hold up.

Assay: qHTS for inhibitors of binding or entry into cells for Marburg Virus
Conditions: Marburg virus pseudotyped entry inhibition, cell reporter; activity change, negative = inhibition: at 37.8 µM (top of the series) unless noted
On the % scale 0 is the no-effect control and ±100 the full control effect; potency means the concentration at half of the fitted maximal effect.

| SMILES | activity change, negative = inhibition | Potency |
| --- | --- | --- |
| Cc1nccn1-c1c2c(c(C#N)c3nc4ccccc4n13)CCCC2 | inactive: 14.2% [at 46.1 µM] |  |
| O=C(Nc1c(C(=O)N2CCN(c3ccccc3)CC2)oc2ccccc12)c1ccc(Br)o1 |  | inconclusive: 2 µM [inhibitor, full curve, poor fit] |
| CCNC(=O)CSC1=N/C(=C\c2ccc(O)c(OCC)c2)C(=O)N1c1ccc(OC(F)F)cc1 | inactive: 8.84% [at 46.1 µM] |  |
| CC(=O)N/C(=C\c1ccccc1)C(=O)OCC(=O)NC(C)C12CC3CC(CC(C3)C1)C2 (stereo not given) | inactive: -17.8% |  |
| Cc1ccc(OCCn2nc3ccccc3n2)c(C)c1 | inactive: -2.43% |  |
| CCc1cc2ccccc2nc1Cl | inactive: 1.1% [at 46.1 µM] |  |
| CC(C)C(C(=O)Nc1ccc2c(c1)OCCO2)N1C(=O)c2ccccc2C1=O (stereo not given) | inactive: -22.2% [at 46.1 µM] |  |
| CCCCC(=O)N(CCOC)c1nnc(-c2cccnc2)s1 |  | inconclusive: 3.55 µM [inhibitor, full curve] |
| O=C1NC(=O)N(Cc2ccco2)C(=O)/C1=C/C=C/c1ccco1 |  | inconclusive: 0.891 µM [inhibitor, partial curve, poor fit] |
| COc1cc2c(cc1OC)C1=C(C#N)COCN1CC2 | inactive: -2.11% |  |
| O=C(Nc1ccc(F)cc1)N1CCN(c2ccccc2F)CC1 |  | inconclusive: 11.2 µM [activator, single point] |
| CCN(CC)c1ccc(C=C2C(=O)OC(c3ccccc3)OC2=O)cc1 (stereo not given) |  | inactive |
| COc1cccc(CNS(=O)(=O)c2ccc3c(c2)CCN3C(=O)C2CCC2)c1 | inactive: 8.6% [at 46.1 µM] |  |
| O=C(CCC(=O)c1cccs1)NCc1ccncc1 | inactive: 17.7% [at 46.1 µM] |  |
| COc1cc(C(=O)N/N=C/c2ccc(OC)c(CN3CCN(c4ccc(F)cc4)CC3)c2)ccc1O |  | inconclusive: 29.1 µM [inhibitor, single point] |
| CC(C)(CNC(=O)c1cc2c(s1)CCCC2)N1CCOCC1 | inactive: 6.92% |  |
| COc1cccc(CNCCSc2nnnn2C)c1OCc1ccccc1Cl |  | inconclusive: 35.5 µM [inhibitor, single point] |
| O=C1CCC(C(=O)N2CCC(O)CC2)CN1CCc1ccc(Cl)cc1 (stereo not given) |  | inconclusive: 35.5 µM [activator, single point] |
| CCC(C(=O)NC(C)(C)C)N(Cc1ccc(F)cc1)C(=O)c1snc(C(N)=O)c1N (stereo not given) |  | inconclusive: 3.98 µM [inhibitor, single point] |
| O=C(NCc1cccc(Cl)c1)c1ccc(CS(=O)Cc2ccc(Cl)cc2)o1 (stereo not given) |  | inconclusive: 0.794 µM [activator, full curve, poor fit] |
| Cc1ccccc1NC(=O)N(CCc1nc2ccccc2[nH]1)Cc1ccccc1 |  | inconclusive: 15.8 µM [inhibitor, single point] |
| CCN(CC)N=Nc1ccc(S(=O)(=O)Nc2nc(C)cc(C)n2)cc1 | inactive: -17.9% [at 46.1 µM] |  |
| CCC1CCCCN1C(=O)CCCOc1ccccc1 (stereo not given) | inactive: 24.9% |  |
| Clc1ccc2nc(CSc3ncn[nH]3)cn2c1 |  | inconclusive: 35.5 µM [activator, single point] |
| COc1cc(=O)n(C)c2c(OC[C@@H](O)C(C)(C)O)cccc12 |  | inactive |

Three entries picked at random from the list so far, as already listed:

| SMILES | activity change, negative = inhibition | Potency |
| --- | --- | --- |
| CC(C)(CNC(=O)c1cc2c(s1)CCCC2)N1CCOCC1 | inactive: 6.92% |  |
| COc1cc(C(=O)N/N=C/c2ccc(OC)c(CN3CCN(c4ccc(F)cc4)CC3)c2)ccc1O |  | inconclusive: 29.1 µM [inhibitor, single point] |
| O=C(NCc1cccc(Cl)c1)c1ccc(CS(=O)Cc2ccc(Cl)cc2)o1 (stereo not given) |  | inconclusive: 0.794 µM [activator, full curve, poor fit] |

More records.

| SMILES | activity change, negative = inhibition | Potency |
| --- | --- | --- |
| CC1=NN(C(N)=S)C(=O)C1N=Nc1ccc(Cl)cc1 (stereo not given) | inactive: -23.5% |  |
| C=CCn1c(O)c(N=NC(=S)Nc2cccc(OC)c2)c2ccccc21 |  | inconclusive: 1.78 µM [inhibitor, full curve] |
| CCn1ccc(C(=O)N2CCOCC2)n1 | inactive: 18.8% [at 46.1 µM] |  |
| CC(C)(c1ccccc1)c1ccc(OCCCNCCO)cc1 |  | inconclusive: 35.5 µM [inhibitor, single point] |
| COC(C(=O)Nc1ccc(Cl)cc1C)c1ccccc1 (stereo not given) |  | inconclusive: 22.4 µM [inhibitor, single point] |
| CCOc1ccccc1NC(=O)c1ccccc1-c1ccccc1 |  | inconclusive: 35.5 µM [inhibitor, single point] |
| CCOc1cc(CN2CCC(CO)(Cc3cccc(C(F)(F)F)c3)CC2)ccc1OC |  | active: 4.47 µM |
| CCOC(=O)c1c(-c2ccc(C)cc2)csc1NC(=O)c1cc2ccccc2oc1=O | inactive: 1.28% |  |
| Cc1ccc(C2=Nn3c(COc4ccc(Cl)cc4)nnc3SC2CC(=O)O)cc1 (stereo not given) | inactive: 5.79% [at 46.1 µM] |  |
| COc1ccc(S(=O)(=O)N2CCCCC2)cc1NC(=O)c1ccc([N+](=O)[O-])o1 | inactive: 18.6% [at 46.1 µM] |  |
| COc1ccc(CC(NC(C)=O)C(=O)NC2CCN(C(=O)c3ccc(Cl)cc3)CC2)cc1 (stereo not given) |  | inconclusive: 6.31 µM [inhibitor, partial curve, poor fit] |
| CN(Cc1cnccn1)Cc1nc(Cc2cccc(F)c2)no1 |  | inconclusive: 3.55 µM [inhibitor, single point] |
| CC1CCCN(C(=O)C2CCN(c3nc(-c4ccccc4)nc4c3CCC4)CC2)C1 (stereo not given) | inactive: -23% |  |
| CCc1ccc(-c2cc(N)n(-c3ccccc3)n2)cc1 | inactive: -17% [at 46.1 µM] |  |
| CN(C(=O)COC(=O)c1ccc(Br)c(S(=O)(=O)N2CCOCC2)c1)C1CCCCC1 |  | inconclusive: 5.01 µM [inhibitor, partial curve, poor fit] |
| COc1ccc2nc3oc(C(=O)N4CCN(c5cc(C)ccc5C)CC4)cc3cc2c1 | inactive: 18.2% [at 46.1 µM] |  |
| O=C(Nc1cccc(S(=O)(=O)NC2=NCCCCC2)c1)c1cc(-c2ccccc2)nc2ccccc12 |  | inconclusive: 35.5 µM [inhibitor, single point] |
| Nc1cc(=O)[nH]c(=O)n1CCCc1ccccc1 | inactive: -1.76% [at 46.1 µM] |  |
| O=S(=O)(c1cccc2nonc12)N1CCN(c2ccccc2F)CC1 | inactive: -19.7% [at 46.1 µM] |  |
| CCCCCn1c(=O)[nH]c2cc(C(=O)NCCN3CCCCC3C)ccc2c1=O (stereo not given) | inactive: 3.23% [at 46.1 µM] |  |
| CC(NC(=O)COC(=O)CCc1ccc(S(=O)(=O)N2CCOCC2)cc1)C1CC2CCC1C2 (stereo not given) | inactive: -0.158% |  |
| Nc1ccccc1C(=O)OCCOc1ccccc1 |  | active: 10 µM |
| CC(=O)CSc1ncnc2sc3c(c12)CCC(C)C3 (stereo not given) | inactive: -20.5% |  |
| NCC12CC3CC(C1)CC(CN)(C3)C2 |  | active: 18.3 µM |
| COc1ccc(CCNC(=O)Cn2cnc3sc(C)c(-c4ccc(F)cc4)c3c2=O)cc1OC |  | inconclusive: 35.5 µM [inhibitor, single point] |

| SMILES | activity change, negative = inhibition | Potency |
| --- | --- | --- |
| COc1ccc(NC2=CC(=O)CC(c3ccccc3)C2)c(OC)c1 (stereo not given) |  | inconclusive: 0.651 µM [inhibitor, full curve, poor fit] |
| CN(C)C(CNC(=O)c1ccc(S(=O)(=O)Nc2ccccc2)cc1)c1ccco1 (stereo not given) | inactive: -14.1% |  |
| COc1ccccc1NC(=O)CCC(=O)N/N=C(/C)c1ccc(C)cc1 |  | inconclusive: 0.708 µM [inhibitor, single point] |
| O=C(Nc1ncccn1)c1cc(-c2cccc(Br)c2)nc2ccccc12 |  | inconclusive: 25.1 µM [inhibitor, partial curve, poor fit] |
| CN(C)c1ccc(C2CC(=O)C=C(Nc3ccccc3N)C2)cc1 (stereo not given) |  | inconclusive: 12.6 µM [activator, single point] |
| O=C(c1ccc2c(c1)OCO2)N(Cc1ccco1)C1(C(=O)NC2CCCCC2)CCCCC1 |  | inconclusive: 10.3 µM [inhibitor, partial curve] |
| COc1cc(C(=O)OCc2cc(=O)c(O)co2)ccc1OC(F)F |  | inconclusive: 5.62 µM [activator, single point] |
| c1csc(-c2csc3nc(CN4CCOCC4)nc(NCc4ccc5c(c4)OCO5)c23)c1 |  | active: 18.3 µM |
| CC(=O)N1N=C(c2ccco2)CC1c1ccc(C)cc1 (stereo not given) |  | inconclusive: 1.26 µM [inhibitor, single point] |
| COc1ccc(NS(=O)(=O)c2c(F)cc(F)c(Cl)c2F)cc1S(=O)(=O)N1CCCCC1 | inactive: 4.38% |  |
| O=C(c1cccc(C(F)(F)F)c1)C1CCCN(Cc2ccc(OCCO)cc2)C1 (stereo not given) |  | inconclusive: 12.6 µM [inhibitor, partial curve, poor fit] |
| COc1cc(C(=O)Cc2nc3ccccc3n2C)cc(OC)c1OC | inactive: 2.28% [at 46.1 µM] |  |
| CC(NC(=O)COC(=O)/C=C/c1ccc(Cl)cc1)c1ccccc1 (stereo not given) |  | inconclusive: 35.5 µM [activator, single point] |
| CCC(=O)c1ccc(OCc2ccc(C(=O)c3ccccc3)cc2)cc1 |  | inconclusive: 3.55 µM [inhibitor, partial curve, poor fit] |
| COc1cccc(CNC(=O)CCC2CCCN(C3CCOCC3)C2)c1 (stereo not given) |  | inconclusive: 15.8 µM [inhibitor, single point] |
| CCN(CC)C(=O)COc1ccc(/C(C)=N/NC(=O)c2ccccc2-n2cccc2)cc1 | inactive: -0.85% |  |
| COc1ccc2occ(C(=O)c3coc4ccc(O)c(CN(C)C)c34)c2c1 |  | inconclusive: 29.1 µM [inhibitor, single point] |
| COc1ccccc1NC(=O)CSc1nnc(-c2ccccn2)o1 |  | inconclusive: 35.5 µM [activator, partial curve, poor fit] |
| COCCn1c(SCC(=O)NCc2ccc(F)cc2)nc2ccccc21 | inactive: 2.55% [at 46.1 µM] |  |
| COc1ccc(C2NC(=S)NC3=C2CCc2ccccc23)cc1OC (stereo not given) |  | inconclusive: 15.8 µM [inhibitor, single point] |
| CN(C(=O)C1CCC(CNS(=O)(=O)c2cccc3cccnc23)CC1)C1CCCCC1 (stereo not given) |  | inconclusive: 12.6 µM [inhibitor, partial curve, poor fit] |
| O=C(N/N=C/c1coc2ccccc2c1=O)c1cn(-c2ccccc2)nc1-c1ccc(F)cc1 |  | inconclusive: 0.447 µM [activator, partial curve, poor fit] |
| Cc1nc(SCC(=O)Nc2ccc(CN3CCCC3)cc2)c2c(C)c(C)sc2n1 |  | inconclusive: 22.4 µM [inhibitor, single point] |
| C1CC2CN(c3nc4nonc4nc3N3CCSCC3)CCN2C1 (stereo not given) |  | inconclusive: 5.62 µM [activator, single point] |
| O=C(NC1CCCc2ccccc21)C(Cc1ccccc1)NS(=O)(=O)c1cccs1 (stereo not given) |  | inconclusive: 25.9 µM [inhibitor, partial curve, poor fit] |
